Measurements: the supplement of paper PMC10849652
The list shows a part of the results.

Chains of the proteins cited; added tags and fusions are not shown. Lines headed by an entry give the natural chain unless they say otherwise; changes in a name come on top.
UniProt O15541: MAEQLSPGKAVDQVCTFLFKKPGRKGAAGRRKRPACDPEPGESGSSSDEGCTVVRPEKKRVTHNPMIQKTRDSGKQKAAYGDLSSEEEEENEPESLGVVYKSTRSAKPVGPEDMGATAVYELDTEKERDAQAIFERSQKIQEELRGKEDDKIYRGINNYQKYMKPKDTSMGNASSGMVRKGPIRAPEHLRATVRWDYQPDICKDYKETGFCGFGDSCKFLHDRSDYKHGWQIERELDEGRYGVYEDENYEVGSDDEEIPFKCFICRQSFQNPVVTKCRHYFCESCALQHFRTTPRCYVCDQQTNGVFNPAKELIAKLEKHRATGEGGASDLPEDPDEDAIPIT
UniProt P38159: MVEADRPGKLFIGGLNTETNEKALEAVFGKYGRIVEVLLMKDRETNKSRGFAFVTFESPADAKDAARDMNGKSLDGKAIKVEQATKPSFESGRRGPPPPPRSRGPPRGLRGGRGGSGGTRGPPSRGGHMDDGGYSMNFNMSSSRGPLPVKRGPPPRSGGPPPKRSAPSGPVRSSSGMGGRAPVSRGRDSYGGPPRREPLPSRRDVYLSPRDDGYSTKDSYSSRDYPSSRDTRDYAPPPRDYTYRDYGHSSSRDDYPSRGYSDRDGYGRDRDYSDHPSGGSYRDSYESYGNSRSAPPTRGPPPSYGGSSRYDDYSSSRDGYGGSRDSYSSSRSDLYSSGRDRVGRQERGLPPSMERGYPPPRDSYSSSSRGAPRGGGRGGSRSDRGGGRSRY
UniProt P40938, whole entry, looked up: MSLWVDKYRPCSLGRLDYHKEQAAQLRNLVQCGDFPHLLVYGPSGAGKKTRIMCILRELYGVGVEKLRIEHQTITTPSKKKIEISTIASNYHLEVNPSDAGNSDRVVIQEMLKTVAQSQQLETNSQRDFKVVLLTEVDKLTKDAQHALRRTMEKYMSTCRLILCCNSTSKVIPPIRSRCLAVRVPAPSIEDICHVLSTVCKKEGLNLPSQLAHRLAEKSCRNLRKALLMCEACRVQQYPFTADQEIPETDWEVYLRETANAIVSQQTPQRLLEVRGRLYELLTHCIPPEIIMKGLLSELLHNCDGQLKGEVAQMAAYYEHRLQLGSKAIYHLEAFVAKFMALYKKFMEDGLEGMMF
UniProt Q14498: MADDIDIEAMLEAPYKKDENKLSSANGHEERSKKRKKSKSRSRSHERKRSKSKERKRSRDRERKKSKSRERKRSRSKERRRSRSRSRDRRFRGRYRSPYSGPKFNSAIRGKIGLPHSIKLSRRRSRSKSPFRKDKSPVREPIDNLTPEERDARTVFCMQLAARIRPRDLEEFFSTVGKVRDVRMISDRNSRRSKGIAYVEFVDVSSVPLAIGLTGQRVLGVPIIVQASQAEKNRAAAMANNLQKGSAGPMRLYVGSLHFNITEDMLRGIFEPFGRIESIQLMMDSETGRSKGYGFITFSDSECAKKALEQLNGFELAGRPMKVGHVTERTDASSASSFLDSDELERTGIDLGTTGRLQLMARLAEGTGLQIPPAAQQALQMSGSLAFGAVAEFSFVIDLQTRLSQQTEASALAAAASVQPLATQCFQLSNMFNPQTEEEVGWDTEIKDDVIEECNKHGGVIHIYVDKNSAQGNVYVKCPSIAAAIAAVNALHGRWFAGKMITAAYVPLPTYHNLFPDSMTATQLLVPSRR
UniProt Q96DM3: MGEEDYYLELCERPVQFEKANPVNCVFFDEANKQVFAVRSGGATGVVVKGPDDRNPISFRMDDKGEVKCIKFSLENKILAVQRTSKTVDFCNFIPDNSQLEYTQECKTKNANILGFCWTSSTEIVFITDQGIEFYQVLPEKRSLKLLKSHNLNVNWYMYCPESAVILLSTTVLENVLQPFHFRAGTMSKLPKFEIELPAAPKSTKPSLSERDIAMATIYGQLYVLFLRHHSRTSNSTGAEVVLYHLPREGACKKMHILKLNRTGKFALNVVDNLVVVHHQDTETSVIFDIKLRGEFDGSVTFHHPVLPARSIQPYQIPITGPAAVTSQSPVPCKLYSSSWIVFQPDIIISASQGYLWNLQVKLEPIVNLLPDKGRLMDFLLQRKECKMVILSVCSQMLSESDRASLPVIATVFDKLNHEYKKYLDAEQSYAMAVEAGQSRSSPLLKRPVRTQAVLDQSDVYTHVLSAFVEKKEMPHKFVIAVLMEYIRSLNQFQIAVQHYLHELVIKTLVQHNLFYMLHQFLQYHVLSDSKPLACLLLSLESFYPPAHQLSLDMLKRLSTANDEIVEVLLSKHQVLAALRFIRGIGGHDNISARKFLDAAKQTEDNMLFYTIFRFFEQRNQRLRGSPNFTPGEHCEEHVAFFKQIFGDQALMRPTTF
UniProt P61586, whole entry, looked up: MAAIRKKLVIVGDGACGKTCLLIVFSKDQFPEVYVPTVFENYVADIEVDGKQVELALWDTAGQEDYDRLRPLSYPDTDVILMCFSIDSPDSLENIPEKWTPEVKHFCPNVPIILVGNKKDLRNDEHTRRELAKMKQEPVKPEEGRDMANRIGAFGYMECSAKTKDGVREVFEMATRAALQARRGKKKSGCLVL
UniProt Q9P260: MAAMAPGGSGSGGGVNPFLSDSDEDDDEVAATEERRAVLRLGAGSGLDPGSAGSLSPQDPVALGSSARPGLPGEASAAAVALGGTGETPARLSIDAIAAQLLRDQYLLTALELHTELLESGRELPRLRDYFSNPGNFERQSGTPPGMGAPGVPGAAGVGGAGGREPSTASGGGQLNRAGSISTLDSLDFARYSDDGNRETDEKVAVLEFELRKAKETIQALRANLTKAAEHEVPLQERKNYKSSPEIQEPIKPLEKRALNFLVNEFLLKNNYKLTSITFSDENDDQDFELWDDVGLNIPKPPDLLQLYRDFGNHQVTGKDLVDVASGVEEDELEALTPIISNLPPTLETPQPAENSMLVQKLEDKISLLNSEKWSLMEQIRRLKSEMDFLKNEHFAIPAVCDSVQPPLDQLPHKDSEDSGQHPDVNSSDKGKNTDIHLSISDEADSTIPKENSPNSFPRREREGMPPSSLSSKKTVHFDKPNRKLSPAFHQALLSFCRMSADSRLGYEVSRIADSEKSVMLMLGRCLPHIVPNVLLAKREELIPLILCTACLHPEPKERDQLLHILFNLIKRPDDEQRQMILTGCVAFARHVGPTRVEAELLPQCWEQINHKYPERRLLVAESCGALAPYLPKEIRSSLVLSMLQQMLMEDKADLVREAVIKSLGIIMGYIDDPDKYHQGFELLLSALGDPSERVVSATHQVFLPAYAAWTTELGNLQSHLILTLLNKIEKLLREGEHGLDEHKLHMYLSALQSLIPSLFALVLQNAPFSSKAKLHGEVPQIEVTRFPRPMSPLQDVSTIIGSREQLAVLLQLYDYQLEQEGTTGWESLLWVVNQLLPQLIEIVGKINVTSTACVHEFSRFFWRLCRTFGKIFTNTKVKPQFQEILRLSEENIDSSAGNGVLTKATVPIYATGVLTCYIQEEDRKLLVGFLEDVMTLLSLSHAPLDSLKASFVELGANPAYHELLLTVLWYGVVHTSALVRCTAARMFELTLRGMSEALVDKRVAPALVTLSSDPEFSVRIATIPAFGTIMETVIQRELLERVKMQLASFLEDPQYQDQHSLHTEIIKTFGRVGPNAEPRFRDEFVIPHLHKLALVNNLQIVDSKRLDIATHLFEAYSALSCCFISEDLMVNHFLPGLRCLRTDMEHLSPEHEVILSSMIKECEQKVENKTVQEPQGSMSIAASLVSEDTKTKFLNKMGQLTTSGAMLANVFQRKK
UniProt Q9NPQ8: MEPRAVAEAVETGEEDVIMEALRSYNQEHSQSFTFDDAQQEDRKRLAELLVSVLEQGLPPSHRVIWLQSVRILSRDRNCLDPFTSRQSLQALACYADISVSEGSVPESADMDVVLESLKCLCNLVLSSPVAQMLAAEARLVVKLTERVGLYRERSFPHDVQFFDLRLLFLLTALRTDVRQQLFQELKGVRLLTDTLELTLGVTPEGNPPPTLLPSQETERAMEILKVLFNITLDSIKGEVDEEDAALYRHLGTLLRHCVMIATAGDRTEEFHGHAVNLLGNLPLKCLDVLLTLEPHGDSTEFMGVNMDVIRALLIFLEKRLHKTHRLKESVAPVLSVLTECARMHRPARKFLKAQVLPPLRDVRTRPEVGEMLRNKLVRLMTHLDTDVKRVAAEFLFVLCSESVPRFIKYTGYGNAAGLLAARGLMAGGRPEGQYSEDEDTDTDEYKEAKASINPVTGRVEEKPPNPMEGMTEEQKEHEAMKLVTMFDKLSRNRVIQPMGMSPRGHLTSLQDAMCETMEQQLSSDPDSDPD
UniProt Q8TC12: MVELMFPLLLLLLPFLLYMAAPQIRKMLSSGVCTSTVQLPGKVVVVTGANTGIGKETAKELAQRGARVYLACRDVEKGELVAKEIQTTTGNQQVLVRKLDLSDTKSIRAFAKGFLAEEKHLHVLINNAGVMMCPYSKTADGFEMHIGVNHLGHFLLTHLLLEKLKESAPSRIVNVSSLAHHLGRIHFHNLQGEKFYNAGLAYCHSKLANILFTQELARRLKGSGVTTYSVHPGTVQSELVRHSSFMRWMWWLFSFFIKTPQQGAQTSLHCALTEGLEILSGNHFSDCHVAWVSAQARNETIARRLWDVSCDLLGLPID
UniProt Q5TC82: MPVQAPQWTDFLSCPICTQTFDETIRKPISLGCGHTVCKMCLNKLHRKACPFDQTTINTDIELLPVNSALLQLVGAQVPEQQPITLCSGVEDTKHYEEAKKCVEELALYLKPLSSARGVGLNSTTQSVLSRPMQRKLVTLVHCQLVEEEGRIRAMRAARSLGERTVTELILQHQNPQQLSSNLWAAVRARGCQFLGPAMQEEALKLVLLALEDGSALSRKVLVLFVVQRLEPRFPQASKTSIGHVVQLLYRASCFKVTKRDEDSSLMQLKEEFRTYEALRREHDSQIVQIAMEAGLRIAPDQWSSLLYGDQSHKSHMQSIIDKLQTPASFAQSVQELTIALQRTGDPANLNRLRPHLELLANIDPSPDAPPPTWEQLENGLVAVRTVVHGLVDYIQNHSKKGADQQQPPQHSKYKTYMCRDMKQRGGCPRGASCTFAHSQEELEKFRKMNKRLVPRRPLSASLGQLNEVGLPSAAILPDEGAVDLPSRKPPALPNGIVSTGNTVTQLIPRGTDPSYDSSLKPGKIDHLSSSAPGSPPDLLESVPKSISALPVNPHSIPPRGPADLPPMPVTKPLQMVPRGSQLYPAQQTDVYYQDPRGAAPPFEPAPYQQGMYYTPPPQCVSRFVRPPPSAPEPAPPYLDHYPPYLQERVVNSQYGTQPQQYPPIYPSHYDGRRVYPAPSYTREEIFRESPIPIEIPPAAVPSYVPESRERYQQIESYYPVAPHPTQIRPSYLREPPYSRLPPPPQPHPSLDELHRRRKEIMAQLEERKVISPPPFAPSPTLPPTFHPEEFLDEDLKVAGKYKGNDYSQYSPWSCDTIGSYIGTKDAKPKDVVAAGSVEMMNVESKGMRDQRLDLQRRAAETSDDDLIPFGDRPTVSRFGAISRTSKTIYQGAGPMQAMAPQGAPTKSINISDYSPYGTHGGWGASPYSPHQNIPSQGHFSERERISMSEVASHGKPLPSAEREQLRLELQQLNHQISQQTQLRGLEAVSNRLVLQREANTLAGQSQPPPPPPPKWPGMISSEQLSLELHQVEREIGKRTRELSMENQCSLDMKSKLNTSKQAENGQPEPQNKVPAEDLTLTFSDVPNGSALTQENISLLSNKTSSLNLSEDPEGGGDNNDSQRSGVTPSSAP
UniProt Q6NUM9: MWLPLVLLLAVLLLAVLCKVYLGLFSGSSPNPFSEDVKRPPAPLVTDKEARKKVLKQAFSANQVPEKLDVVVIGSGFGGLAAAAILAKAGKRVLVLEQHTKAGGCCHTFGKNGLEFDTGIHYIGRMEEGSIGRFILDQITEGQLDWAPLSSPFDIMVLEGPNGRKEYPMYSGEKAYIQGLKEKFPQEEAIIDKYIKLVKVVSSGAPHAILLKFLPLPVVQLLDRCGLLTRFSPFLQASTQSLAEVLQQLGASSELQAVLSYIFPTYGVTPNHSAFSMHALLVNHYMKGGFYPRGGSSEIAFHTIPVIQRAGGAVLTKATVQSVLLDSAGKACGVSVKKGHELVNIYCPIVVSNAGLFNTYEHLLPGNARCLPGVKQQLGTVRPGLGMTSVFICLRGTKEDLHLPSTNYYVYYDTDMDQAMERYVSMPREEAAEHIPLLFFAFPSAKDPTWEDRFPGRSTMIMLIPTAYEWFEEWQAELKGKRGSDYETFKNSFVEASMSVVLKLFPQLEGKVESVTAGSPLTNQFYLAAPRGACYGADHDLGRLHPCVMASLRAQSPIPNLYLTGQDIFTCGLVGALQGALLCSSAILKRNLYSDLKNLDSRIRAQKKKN
UniProt Q15493: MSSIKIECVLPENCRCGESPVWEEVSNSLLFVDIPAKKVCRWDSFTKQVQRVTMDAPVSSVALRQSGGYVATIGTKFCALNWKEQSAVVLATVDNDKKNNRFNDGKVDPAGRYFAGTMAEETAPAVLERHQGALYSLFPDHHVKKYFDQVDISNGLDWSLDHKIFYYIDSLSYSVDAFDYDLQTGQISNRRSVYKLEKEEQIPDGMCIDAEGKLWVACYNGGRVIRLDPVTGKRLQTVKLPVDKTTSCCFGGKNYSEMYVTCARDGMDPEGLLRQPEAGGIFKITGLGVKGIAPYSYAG

Columns and labels:
Assay in all cases: log2 fold change, soluble protein after heating vs DMSO (PISA); higher = thermal stabilisation; K562 cells, 10 uM, 30 min; active = over 0.2 and 3.5 SD of the protein, either way, in both replicates (recomputed)
[1] = compound: CC[C@@H]1C(=O)N(C)c2cnc(Nc3ccc(C(=O)NC4CCN(C)CC4)cc3OC)nc2N1C1CCCC1
Outline: (§1)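 K562 cells (2×10^6 cells/mL) were treated with 10 μM compound for 30 min, and aliquots were heated for 3 min over 48°C-58°C. Pooled aliquots were extracted in PBS with 0.5% NP-40 at 4°C, and the supernatant after 21,000xg for 90 min was measured by TMTpro 16plex LC-MS/MS with channel sums equalised. Reported thermal stability, relative to control samples and from duplicates, is a log2 fold change.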

volasertib = compound: CC[C@@H]1C(=O)N(C)c2cnc(Nc3ccc(C(=O)N[C@H]4CC[C@H](N5CCN(CC6CC6)CC5)CC4)cc3OC)nc2N1C(C)C [volasertib]
Outline: as §1

[2] = compound: CC[C@H](C)N1C=C(C2=C(C=C(C=C21)C3=CN=C(C=C3)N4CCNCC4)C(=O)NCC5=C(C=C(NC5=O)C)C)C
Outline: as §1

epoxomicin = compound: CC[C@H](C)[C@@H](C(=O)N[C@@H]([C@@H](C)O)C(=O)N[C@@H](CC(C)C)C(=O)[C@]1(CO1)C)NC(=O)[C@H]([C@@H](C)CC)N(C)C(=O)C [epoxomicin]
Outline: as §1

[3] = compound: CCn1c(C(=O)N(C2CC2)C2CC2)cc2c3c(ncn3C)c(Nc3cc(C)n(C)n3)nc21
Outline: as §1

[4] = compound: CCn1cc(-c2ccnc3[nH]c(-c4cccc(CN(C)C)c4)cc23)c(-c2ccc(NC(=O)N(C)C)cc2)n1
Outline: as §1

[5] = compound: CN(C)CC(=O)Nc1ccc2[nH]c(=O)c3ccccc3c2c1
Outline: as §1

rosiglitazone = compound: CN(CCOC1=CC=C(C=C1)C[C@H]2C(=O)NC(=O)S2)C3=CC=CC=N3 (racemic) [rosiglitazone]
Outline: as §1

[6] = compound: CN1C2=C(C3=C1C(=O)N(N=C3)CC4=CC(=CC=C4)N)SC(=C2)S(=O)C
Outline: as §1

[7] = compound: CN1CCC(CNc2ccc3ncc(-c4cccc(OC(F)(F)F)c4)n3n2)CC1
Outline: as §1

Target	log2 fold change [1]	log2 fold change (volasertib)	log2 fold change [2]	log2 fold change (epoxomicin)	log2 fold change [3]	log2 fold change [4]	log2 fold change [5]	log2 fold change (rosiglitazone)	log2 fold change [6]	log2 fold change [7]
RNF113A (UniProt O15541)	inactive: 0.039	inactive: 0.015	inactive: -0.035	inactive: 0.042	inactive: 0.01	inactive: 0.004	inactive: -0.036	inactive: -0.001	inactive: -0.056	inactive: -0.015
RHBDD1 (UniProt Q8TEB9)	inactive: 0.076	inactive: -0.036	inactive: 0.111	inactive: -0.004	inactive: 0.093	inactive: 0.015	inactive: -0.199	inactive: -0.039	inactive: -0.037	inactive: -0.222
RCE1 (UniProt Q9Y256)	inactive: -0.111	inactive: 0.035	inactive: -0.001	inactive: -0.064	inactive: 0.033	inactive: -0.183	inactive: -0.023	inactive: 0.114	inactive: -0.063	inactive: 0.085
RBMX (UniProt P38159)	inactive: 0.166	inactive: 0.131	inactive: -0.017	inactive: -0.316	inactive: -0.008	inactive: 0.264	inactive: -0.039	inactive: -0.114	inactive: 0.25	inactive: 0.289
RMND1 (UniProt Q9NWS8)	inactive: 0.018	inactive: -0.091	inactive: 0.029	inactive: 0.024	inactive: 0.009	inactive: -0.072	inactive: 0.079	inactive: 0.034	inactive: -0.005	inactive: -0.034
RNF123 isoform 2 (UniProt Q5XPI4)	inactive: -0.135	inactive: -0.333	inactive: 0.051	inactive: 0.063	inactive: -0.021	inactive: -0.095	inactive: 0.015	inactive: -0.001	inactive: -0.015	inactive: -0.115
RCL1 (UniProt Q9Y2P8)	inactive: 0.131	inactive: 0.084	inactive: 0.029	inactive: -0.238	inactive: -0.007	inactive: 0.239	inactive: 0.048	inactive: -0.067	inactive: 0.271	inactive: 0.239
RIOK1 (UniProt Q9BRS2)	inactive: 0.066	inactive: 0.071	inactive: -0.046	inactive: -0.046	inactive: 0.036	inactive: 0.015	inactive: -0.002	inactive: -0.04	inactive: -0.023	inactive: 0.052
RER1 (UniProt O15258)	inactive: -0.008	inactive: 0.05	inactive: -0.079	inactive: -0.037	inactive: 0.023	inactive: 0.064	inactive: 0.02	inactive: 0	inactive: -0.032	inactive: 0.095
RETREG2 (UniProt Q8NC44)	inactive: 0.002	inactive: -0.069	inactive: -0.021		inactive: -0.022		inactive: 0.022	inactive: 0.004	inactive: 0.031	
RHEB (UniProt Q15382)	inactive: 0.038	inactive: 0.013	inactive: -0.014	inactive: 0.002		inactive: 0.02	inactive: 0.016		inactive: -0.068	inactive: -0.003
RFC3 (UniProt P40938)	inactive: -0.008	inactive: -0.052	inactive: 0.047	inactive: 0.042		inactive: -0.081	inactive: 0.038		inactive: -0.096	inactive: -0.008
RNASET2 (UniProt O00584)	active: -0.275	inactive: -0.196	inactive: 0.023	inactive: -0.027		inactive: 0.045	inactive: 0.036		inactive: -0.036	active: -0.413
RBM39 (UniProt Q14498)	inactive: -0.183	active: -0.487	inactive: 0.038	inactive: -0.027		inactive: 0.079	inactive: 0.013		inactive: 0.071	inactive: -0.045
RMC1 (UniProt Q96DM3)	inactive: -0.192	active: -0.416	inactive: 0.095	inactive: -0.025		inactive: 0.042	inactive: -0.023		inactive: -0.039	inactive: -0.146
RCOR3 isoform 3 (UniProt Q9P2K3)	inactive: 0.005	inactive: -0.068	inactive: -0.078			inactive: -0.294	inactive: 0.038		inactive: 0.02	inactive: -0.011
RICTOR isoform 3 (UniProt Q6R327)	inactive: -0.271	active: -0.758	inactive: -0.033	inactive: 0.064		inactive: -0.083			inactive: 0.265	inactive: -0.169
RHOA (UniProt P61586)	inactive: -0.098	inactive: 0.134	inactive: 0.065	inactive: 0.049		inactive: 0.071	inactive: -0.025		inactive: -0.037	inactive: 0.01

Target	log2 fold change [1]	log2 fold change (volasertib)	log2 fold change [2]	log2 fold change (epoxomicin)	log2 fold change [3]	log2 fold change [4]	log2 fold change [5]	log2 fold change (rosiglitazone)	log2 fold change [6]	log2 fold change [7]
RBSN (UniProt Q9H1K0)	inactive: -0.124	inactive: -0.404	inactive: 0.186		inactive: -0.081	inactive: -0.05	inactive: -0.056	inactive: 0.133	inactive: 0.064	inactive: -0.311
RELCH isoform 2 (UniProt Q9P260)	inactive: -0.322		inactive: 0.102	inactive: 0.001	inactive: 0	inactive: -0.004	inactive: 0.105	inactive: 0.128	inactive: -0.006	inactive: -0.165
RIC8A isoform 3 (UniProt Q9NPQ8)	inactive: -0.149	active: -0.526	inactive: 0.11	inactive: 0.061		inactive: 0.036	inactive: 0.011		inactive: -0.005	inactive: -0.186
RDH10 (UniProt Q8IZV5)	inactive: 0.068	inactive: 0.037	inactive: 0.034	inactive: -0.026		inactive: 0.021	inactive: -0.006		inactive: -0.19	inactive: 0.09
REEP4 (UniProt Q9H6H4)	inactive: -0.023	inactive: -0.043	inactive: -0.011	inactive: -0.08		inactive: 0.051	inactive: -0.015		inactive: 0.079	inactive: -0.134
RDH11 (UniProt Q8TC12)	inactive: -0.213	active: -0.543	inactive: 0.015	inactive: 0.045		inactive: -0.072	inactive: 0.037		inactive: 0.027	active: -0.466
RLIM (UniProt Q9NVW2)	inactive: 0.15	inactive: 0				inactive: -0.231	inactive: -0.04		inactive: -0.125	inactive: -0.08
RFX3 (UniProt P48380)	inactive: 0.127	inactive: -0.046			inactive: -0.055			inactive: 0.153		
RC3H1 (UniProt Q5TC82)	inactive: 0.139	inactive: 0.236		inactive: -0.173	inactive: 0.022	inactive: 0.07	inactive: 0.048		inactive: 0.236	inactive: -0.134
RNF187 (UniProt Q5TA31)	inactive: 0.155	inactive: 0.074	inactive: 0.061	inactive: 0.15		inactive: 0.002	inactive: 0.24		inactive: -0.104	inactive: -0.073
RBM8A (UniProt Q9Y5S9)	inactive: -0.051	inactive: -0.041	inactive: 0.038	inactive: 0.005		inactive: 0.014	inactive: -0.037		inactive: -0.035	inactive: 0.065
RETSAT (UniProt Q6NUM9)	inactive: -0.073	inactive: -0.073	inactive: 0.024	inactive: -0.003		inactive: -0.012	inactive: 0.036		inactive: -0.011	inactive: 0.053
RIPK1 (UniProt Q13546)	inactive: -0.069	active: -0.478	inactive: 0.12	inactive: -0.01		inactive: 0.041	inactive: 0.08		inactive: 0.022	inactive: -0.099
RNF130 (UniProt Q86XS8)	inactive: 0.149	inactive: 0.071			inactive: -0.029			inactive: 0.036		
RIOK3 (UniProt O14730)	inactive: 0.084	inactive: 0.04	inactive: -0.01	inactive: 0.072		inactive: -0.053	inactive: -0.011		inactive: -0.023	inactive: -0.041
RHOXF2 (UniProt Q9BQY4)	inactive: 0.014	inactive: 0.061	inactive: -0.046	inactive: 0.024		inactive: 0.086	inactive: -0.028		inactive: 0.074	inactive: -0.073
RGN (UniProt Q15493)	inactive: -0.156	inactive: 0.119	inactive: -0.154				inactive: -0.04			
RELA (UniProt Q04206)	inactive: -0.063	active: -0.263	inactive: 0.013	inactive: 0.025		inactive: -0.043	inactive: -0.019		inactive: -0.009	inactive: -0.011

2 records drawn at random from those above, as already listed:
Target	log2 fold change [1]	log2 fold change (volasertib)	log2 fold change [2]	log2 fold change (epoxomicin)	log2 fold change [3]	log2 fold change [4]	log2 fold change [5]	log2 fold change (rosiglitazone)	log2 fold change [6]	log2 fold change [7]
RELA (UniProt Q04206)	inactive: -0.063	active: -0.263	inactive: 0.013	inactive: 0.025		inactive: -0.043	inactive: -0.019		inactive: -0.009	inactive: -0.011
RDH11 (UniProt Q8TC12)	inactive: -0.213	active: -0.543	inactive: 0.015	inactive: 0.045		inactive: -0.072	inactive: 0.037		inactive: 0.027	active: -0.466
